# The list shows a part of the results. Repeats are few or missing, and single values can be far off.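 The apoptosis fraction was the count of cleaved-PARP antibody-stained nuclei relative to all DNA-stained nuclei, imaged in 1,536-well plates. Screening doses were set so most cells survived, and baseline and induced cleaved-PARP levels vary greatly across cell lines.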
# Tested on: SkMel2
# Assay: cleaved PARP positive nuclei fraction relative to DMSO control; melanoma cells; higher = more apoptosis
# Details: library dose: low library concentration; 72 h
row,Structure (SMILES),cleaved PARP positive nuclei fraction
1,"O=C(Nc1cc(C(F)(F)F)cc(C(F)(F)F)c1)c1cc(Cl)ccc1O + Cn1nnc2c(C(N)=O)ncn2c1=O [temozolomide] (first compound 0.016 µM, partner dose 2 µM)",43.9%
2,"COc1cc([C@@H]2c3cc4c(cc3[C@@H](O[C@@H]3O[C@@H]5CO[C@@H](C)O[C@H]5[C@H](O)[C@H]3O)[C@H]3COC(=O)[C@H]23)OCO4)cc(OC)c1O [etoposide] + Cn1sc(=O)n(Cc2ccccc2)c1=O [TDZD-8] (first compound 0.02 µM, partner dose 0.4 µM)",193%
3,"O=c1[nH]nc(Sc2ncc([N+](=O)[O-])s2)n1-c1ccc2c(c1)OCCO2 + Cn1nnc2c(C(N)=O)ncn2c1=O [temozolomide] (first compound 0.2 µM, partner dose 2 µM)",168%
4,"Cc1cc(Nc2cc(N3CCN(C)CC3)nc(Sc3ccc(NC(=O)C4CC4)cc3)n2)n[nH]1 [Tozasertib] + C[C@@H](Oc1cc(-c2cnn(C3CCNCC3)c2)cnc1N)c1c(Cl)ccc(F)c1Cl [Crizotinib] (first compound 0.006 µM, partner dose 0.2 µM)",79.2%
5,"Cc1ccc(Nc2nccc(N(C)c3ccc4c(C)n(C)nc4c3)n2)cc1S(N)(=O)=O [Pazopanib] + CCCS(=O)(=O)Nc1ccc(F)c(C(=O)c2c[nH]c3ncc(Cl)cc23)c1F [PLX4720] (first compound 0.4 µM, partner dose 0.08 µM)",58.8%
6,"N#CC[C@H](C1CCCC1)n1cc(-c2ncnc3[nH]ccc23)cn1 [ruxolitinib] + OCc1c[nH]c2ccccc12 [Indole-3-carbinol] (first compound 1 µM, partner dose 0.8 µM)",55.4%
7,"Cc1ccc(Nc2nccc(N(C)c3ccc4c(C)n(C)nc4c3)n2)cc1S(N)(=O)=O [Pazopanib] + OCc1c[nH]c2ccccc12 [Indole-3-carbinol] (first compound 0.4 µM, partner dose 0.8 µM)",120%
8,"COc1cc([C@@H]2c3cc4c(cc3[C@@H](O[C@@H]3O[C@@H]5CO[C@@H](C)O[C@H]5[C@H](O)[C@H]3O)[C@H]3COC(=O)[C@H]23)OCO4)cc(OC)c1O [etoposide] + C[C@]1(O)C[C@@H](c2nc(-c3ccc4ccc(-c5ccccc5)nc4c3)c3c(N)nccn32)C1 [OSI906] (first compound 0.02 µM, partner dose 0.4 µM)",144%
9,"Cc1ccc(Nc2nccc(N(C)c3ccc4c(C)n(C)nc4c3)n2)cc1S(N)(=O)=O [Pazopanib] + Cn1nnc2c(C(N)=O)ncn2c1=O [temozolomide] (first compound 0.4 µM, partner dose 2 µM)",14%
10,"O=c1[nH]nc(Sc2ncc([N+](=O)[O-])s2)n1-c1ccc2c(c1)OCCO2 + CCCS(=O)(=O)Nc1ccc(F)c(C(=O)c2c[nH]c3ncc(Cl)cc23)c1F [PLX4720] (first compound 0.2 µM, partner dose 0.08 µM)",139%
11,"Cc1ccc(Nc2nccc(N(C)c3ccc4c(C)n(C)nc4c3)n2)cc1S(N)(=O)=O [Pazopanib] + CC(=O)c1c(C)c2cnc(Nc3ccc(N4CCNCC4)cn3)nc2n(C2CCCC2)c1=O [palbociclib] (first compound 0.4 µM, partner dose 0.04 µM)",144%
12,"Cc1cn(-c2cc(NC(=O)c3ccc(C)c(Nc4nccc(-c5cccnc5)n4)c3)cc(C(F)(F)F)c2)cn1 [nilotinib] + CN(c1ncccc1CNc1nc(Nc2ccc3c(c2)CC(=O)N3)ncc1C(F)(F)F)S(C)(=O)=O [PF562271] (first compound 0.2 µM, partner dose 0.08 µM)",255%
13,"CC[C@]1(O)C[C@H]2CN(CCc3c([nH]c4ccccc34)[C@@](C(=O)OC)(c3cc4c(cc3OC)N(C=O)[C@H]3[C@@](O)(C(=O)OC)[C@H](OC(C)=O)[C@]5(CC)C=CCN6CC[C@]43[C@@H]65)C2)C1 [vincristine] + COCC[n+]1c2c(n(Cc3cnccn3)c1C)C(=O)c1ccccc1C2=O [YM155] (first compound 0.0001 µM, partner dose 0.0004 µM)",161%
14,"Cc1cn(-c2cc(NC(=O)c3ccc(C)c(Nc4nccc(-c5cccnc5)n4)c3)cc(C(F)(F)F)c2)cn1 [nilotinib] + O=C(O)[C@@H]1[O][Sb](=[O])([O][Sb]2(=[O])[O][C@H]([C@H](O)CO)[C@H](O)[C@H](C(=O)O)[O]2)[O][C@H]([C@H](O)CO)[C@@H]1O [stibogluconate] (first compound 0.2 µM, partner dose 2 µM)",145%
15,"COc1cc([C@@H]2c3cc4c(cc3[C@@H](O[C@@H]3O[C@@H]5CO[C@@H](C)O[C@H]5[C@H](O)[C@H]3O)[C@H]3COC(=O)[C@H]23)OCO4)cc(OC)c1O [etoposide] + CCCCCCCCCCCCCCCCCCOP(=O)([O-])OC1CC[N+](C)(C)CC1 [Perifosine] (first compound 0.02 µM, partner dose 0.4 µM)",143%
16,"O=C(/C=C/c1cccnc1)NCCCCC1CCN(C(=O)c2ccccc2)CC1 + CS(=O)(=O)c1ccc(C(=O)Nc2ccc(Cl)c(-c3ccccn3)c2)c(Cl)c1 [vismodegib] (first compound 0.01 µM, partner dose 1 µM)",2110%
17,"Cc1cc(Nc2cc(N3CCN(C)CC3)nc(Sc3ccc(NC(=O)C4CC4)cc3)n2)n[nH]1 [Tozasertib] + C#Cc1cccc(Nc2ncnc3cc(OCCOC)c(OCCOC)cc23)c1 [erlotinib] (first compound 0.006 µM, partner dose 0.8 µM)",47.7%
18,"Cc1ccc(Nc2nccc(N(C)c3ccc4c(C)n(C)nc4c3)n2)cc1S(N)(=O)=O [Pazopanib] + C#Cc1cccc(Nc2ncnc3cc(OCCOC)c(OCCOC)cc23)c1 [erlotinib] (first compound 0.4 µM, partner dose 0.8 µM)",108%
19,"CCCCCCCCCCCCCCCCCCOP(=O)([O-])OC1CC[N+](C)(C)CC1 [Perifosine] + C=C(c1ccc(C(=O)O)cc1)c1cc2c(cc1C)C(C)(C)CCC2(C)C [Bexarotene] (first compound 0.4 µM, partner dose 2 µM)",39%
20,"CCCCCCCCCCCCCCCCCCOP(=O)([O-])OC1CC[N+](C)(C)CC1 [Perifosine] + Clc1ccc(Nc2nnc(Cc3ccncc3)c3ccccc23)cc1 [vatalanib] (first compound 0.4 µM, partner dose 2 µM)",100%
21,"Cc1cn(-c2cc(NC(=O)c3ccc(C)c(Nc4nccc(-c5cccnc5)n4)c3)cc(C(F)(F)F)c2)cn1 [nilotinib] + Cn1nnc2c(C(N)=O)ncn2c1=O [temozolomide] (first compound 0.2 µM, partner dose 2 µM)",324%

# An excerpt of these results, as tab-separated lines.
row	Structure (SMILES)	cleaved PARP positive nuclei fraction
13	CC[C@]1(O)C[C@H]2CN(CCc3c([nH]c4ccccc34)[C@@](C(=O)OC)(c3cc4c(cc3OC)N(C=O)[C@H]3[C@@](O)(C(=O)OC)[C@H](OC(C)=O)[C@]5(CC)C=CCN6CC[C@]43[C@@H]65)C2)C1 [vincristine] + COCC[n+]1c2c(n(Cc3cnccn3)c1C)C(=O)c1ccccc1C2=O [YM155] (first compound 0.0001 µM, partner dose 0.0004 µM)	161%
21	Cc1cn(-c2cc(NC(=O)c3ccc(C)c(Nc4nccc(-c5cccnc5)n4)c3)cc(C(F)(F)F)c2)cn1 [nilotinib] + Cn1nnc2c(C(N)=O)ncn2c1=O [temozolomide] (first compound 0.2 µM, partner dose 2 µM)	324%
